Consider 2 molecules from paper PMC10957924.

Protein sequences, listed by entry. Tags and fused reporters are not part of them. Residues count along the entry.
UniProt B1AWN6, residues 1778-2006: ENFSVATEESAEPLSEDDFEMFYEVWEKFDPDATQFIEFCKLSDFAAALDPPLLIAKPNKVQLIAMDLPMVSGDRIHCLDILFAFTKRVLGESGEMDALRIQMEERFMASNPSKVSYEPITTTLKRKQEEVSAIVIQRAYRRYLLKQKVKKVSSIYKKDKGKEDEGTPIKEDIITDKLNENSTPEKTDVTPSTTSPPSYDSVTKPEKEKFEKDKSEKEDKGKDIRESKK
UniProt Q9WTU3, residues 1765-1978: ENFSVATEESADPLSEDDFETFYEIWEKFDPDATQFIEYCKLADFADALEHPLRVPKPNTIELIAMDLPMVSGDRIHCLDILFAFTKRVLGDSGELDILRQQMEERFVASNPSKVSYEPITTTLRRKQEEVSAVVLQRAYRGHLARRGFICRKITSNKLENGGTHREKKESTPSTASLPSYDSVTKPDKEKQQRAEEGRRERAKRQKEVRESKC

Experiment [1] deals with C-terminus of NaV1.2 (amino acids 1778-2006) fused to the DNA-binding domain of LexA (UniProt B1AWN6). Put plainly: two-hybrid; library screen: L40 yeast co-transfected with the LexA bait plasmid pSN12CT and an adult mouse brain cDNA library in fusion with the GAL4 activation domain; growth on -his -leu -trp medium at 30 °C and LexA-driven β-galactosidase activity.
Experiment [2] deals with C-terminus of NaV1.6 (amino acids 1765-1978) fused to the DNA-binding domain of LexA (mouse) (UniProt Q9WTU3). Put plainly: two-hybrid; mating: prey-only L40 cells crossed with AMR70 cells carrying LexA bait plasmids (pSN12CT, pSN16CT or negative controls); β-galactosidase activity with X-gal.
Experiment [3] has as its target C-terminus of NaV1.2 (amino acids 1778-2006) fused to the DNA-binding domain of LexA (UniProt B1AWN6). Described as above.
For the next experiment, the target named is GST-NaV1.2CT (UniProt B1AWN6). Put plainly: pull-down; GST proteins on glutathione sepharose beads incubated with the lysate of BL21 cells making His6-Calp10, 1 h at 37 °C, in presence or absence of calcium; binding buffer 50 mM Tris-HCl pH 7.5, 120 mM NaCl, 2 mM EGTA, 0.1% triton X-100, 2 mM DTT; western blot with anti-polyhistidine; only the target purified.

The target of another experiment is GST-NaV1.6CT (mouse) (UniProt Q9WTU3). Described as above.

Results are given in words; binding and its absence hold for the method and conditions named. For some assays here: In cells and extracts the contact can be indirect. Some entries that bind do so weakly or less than the wild type. Tags and fused reporters may be left off the sequences shown.

B1: Calpain-10 (amino acids 452 to 666), clone T22-322, fused to the GAL4 activation domain (domain or fragment, UniProt Q9ESK3 452-666)
chain: RCELSPGYYLAVPSTFLKDVPGQFLLRVFSTGKISLSAVRLATKGASPGTALPAGEWETVQLQGCWRAGQTAGGSRNFASYPCNPCLPFSVPEGAGPRYIRITLQQHCRLSDSQLHPIGFHVFQVPADGENQDACSLLLQEPLLSCVPHRYAQEVSRLCLLSVGNYRIVPSTYLPDTEGTFTVTIATRIDRQSIHSQEMLGQLLQEVSFMAVMKA
For the molecule B1, the binding entry in experiment [1], in experiment [2] and in experiment [3] was “binds” each time.

B2: His6-tagged Calpain 10 (amino acids 452-666) (domain or fragment, UniProt Q9ESK3 452-666)
chain: RCELSPGYYLAVPSTFLKDVPGQFLLRVFSTGKISLSAVRLATKGASPGTALPAGEWETVQLQGCWRAGQTAGGSRNFASYPCNPCLPFSVPEGAGPRYIRITLQQHCRLSDSQLHPIGFHVFQVPADGENQDACSLLLQEPLLSCVPHRYAQEVSRLCLLSVGNYRIVPSTYLPDTEGTFTVTIATRIDRQSIHSQEMLGQLLQEVSFMAVMKA
In the case of B2, the binding result with GST-NaV1.2CT and with GST-NaV1.6CT (mouse) was “binds” throughout.
